Reference: PubChem BioAssay AID504834 (National Center for Advancing Translational Sciences (NCATS), 2011)
Where “and” joins values, the source holds several entries; their conditions need not be identical. Equal values may be shown once. The whole screen tested about 320,000 compounds, of which about 22,000 (6.9%) were called active. This list was built around the results that the source calls inconclusive (neither active nor inactive); the mix of calls is not that of the screen. Calls follow the shape of the dose curve; as a rule, active = well fitted inhibition curve with a large enough effect; inconclusive = small, poorly fitted or top-dose-only effect, or another doubt; inactive = no such curve, though single readings can be large or run the other way. Potencies beside an inconclusive call are fits to weak or partial responses and may not hold up.

Experiment: Primary qHTS for delayed death inhibitors of the malarial parasite plastid, 96 hour incubation
Details: P. falciparum luciferase reporter growth; series mostly up to 28.7 µM
Procedure, shortened: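 Erythrocytes infected with luciferase-expressing P. falciparum were dispensed at 2% hematocrit and 0.05% parasitemia (final), then incubated with compounds 96 hours at 37 C in 5% CO2. Luminescence after detection reagent addition reported growth.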
Potency is read from the fitted curve at half-maximal effect.

SMILES | Potency
Cc1cc(NC(=O)CN2CCN(c3ccc(O)cc3)CC2)no1 | active: 9.28 µM
CCC(C)(C)C1CCC2(CC1)NC(=O)N(CC(=O)NCCCc1ccccc1)C2=O (configuration not stated) | inconclusive: 9.28 µM [inhibitor, single point]
CCN(CC)C(=O)c1ccc(C(=O)c2c(C)cc(C)cc2C)cc1 | inconclusive: 2.08 µM [inhibitor, full curve, poor fit]
COc1cc(C(=O)OC2C[C@H]3CC[C@@H](C2)N3C)ccc1O (some centres not stated) | inactive
CCOc1ccc(C(=O)NCC(=O)Nc2ncccc2C)cc1OCC | inactive
O=c1[nH]c(C2CCN(S(=O)(=O)c3ccccc3C(F)(F)F)CC2)nc2c1nnn2Cc1cccc(F)c1 | inconclusive: 0.262 µM [inhibitor, full curve, poor fit]
COc1ccc(CN=Cc2[nH]c3ccc(Br)c(Cl)c3c2O)cc1 | inconclusive: 2.33 µM [inhibitor, full curve]
CCOc1ccc(N(CC(=O)NN=C2CCCC2)S(C)(=O)=O)cc1 | inconclusive: 0.131 µM [inhibitor, full curve, poor fit]
N#CC(c1cccc(C(F)(F)F)c1)(c1ncc(C(F)(F)F)cc1Cl)N1CCOCC1 (configuration not stated) | inconclusive: 4.15 µM [inhibitor, partial curve, poor fit]
OC(COCc1ccc2c(c1)OCO2)CN1CCCCC1 (configuration not stated) | active: 11.7 µM
Cc1ccc(S(=O)(=O)N2CCC(=O)N(C(COCc3ccc(Cl)c(Cl)c3)Cc3ccccc3)CC2)cc1 (configuration not stated) | inconclusive: 10.4 µM [inhibitor, partial curve, poor fit]
CC(=O)c1cccc(NC(=O)c2sc(Cl)nc2C)c1 | inconclusive: 16.5 µM [inhibitor, single point]
COc1ccc(NS(=O)(=O)c2ccc(N3CCN(CCO)CC3)c([N+](=O)[O-])c2)cc1 | inactive
Cc1csc(NC(=O)CN2CCCCCC2)n1 | inconclusive: 18.5 µM [inhibitor, single point]
Cc1ccc(C(=O)NCc2ccc(Cl)c(Cl)c2)o1 | inactive
Cc1cc(C(=O)N/N=C/c2cc(Cl)cc([N+](=O)[O-])c2O)n[nH]1 | inactive
CCOC(=O)/C(=C/c1ccc(F)cc1)NC(C)=O | inconclusive: 18.5 µM [inhibitor, single point]
COc1ccc(NC(=O)/C(C#N)=C\c2ccc(OCc3ccc(C(=O)O)cc3)c(OC)c2)cc1 | inactive
Cc1nc2ccccc2n1Cc1ccc(Cl)cc1 | inconclusive: 1.69 µM [inhibitor, partial curve, poor fit] and inconclusive: 11.7 µM [inhibitor, single point]
O=C(NCCCN1CCCC1=O)c1ccc2c(=O)n(-c3ccccc3F)c(=S)[nH]c2c1 | inconclusive: 6.57 µM [inhibitor, partial curve, poor fit]
CCOC(=O)c1sc(-c2ccccc2)nc1C | inconclusive: 4.15 µM [inhibitor, partial curve, poor fit]

Ordered by SMILES length (high to low): part of the list above.
SMILES | Potency
N#CC(c1cccc(C(F)(F)F)c1)(c1ncc(C(F)(F)F)cc1Cl)N1CCOCC1 (configuration not stated) | inconclusive: 4.15 µM [inhibitor, partial curve, poor fit]
Cc1cc(C(=O)N/N=C/c2cc(Cl)cc([N+](=O)[O-])c2O)n[nH]1 | inactive
Cc1ccc(C(=O)NCc2ccc(Cl)c(Cl)c2)o1 | inactive

(more compounds)

SMILES | Potency
CCC1Sc2ccccc2N(CC(=O)NCCC2=CCCCC2)C1=O (configuration not stated) | inconclusive: 18.5 µM [inhibitor, single point]
COc1ccc(CNC(=O)c2c(O)c3cccc4c3n(c2=O)CCC4)cc1 | inconclusive: 11.7 µM [inhibitor, partial curve, poor fit]
CCOC(=O)N1CCN(S(=O)(=O)c2ccc(C(=O)Nc3nnc(C4CC4)o3)cc2)CC1 | inconclusive: 10.4 µM [inhibitor, single point]
O=C1C2C(c3ccccc3)CC=CC2[C@H](c2cccc([N+](=O)[O-])c2)N1Cc1ccccc1 (some centres not stated) | inconclusive: 18.5 µM [inhibitor, partial curve, poor fit]
CCOc1cc2c(cc1OCC)C(C(=O)O)C(c1cc(OC)c(OC)c(OC)c1)N(C)C2=O (configuration not stated) | inconclusive: 3.7 µM [inhibitor, partial curve, poor fit]
CC1Cc2cc(S(=O)(=O)N3CCC(C(=O)NCc4ccco4)CC3)ccc2N1C(=O)C1CCC1 (configuration not stated) | inconclusive: 4.65 µM [inhibitor, partial curve]
COCCn1cnc2c(c1=O)c1nc3ccccc3nc1n2/N=C/c1ccco1 | inactive
COc1cccc(C2C(C(=O)Nc3nc4ccccc4s3)=C(C)NC3=C2C(=O)CC(C)(C)C3)c1OC (configuration not stated) | inconclusive: 1.17 µM [inhibitor, full curve, poor fit]
COc1ccc(OCC#CCN2CCNCC2)cc1 | active: 1.85 µM
COc1ccc(NS(=O)(=O)c2ccc3c(c2)OCCO3)cc1OC | inconclusive: 18.5 µM [inhibitor, single point]
Cc1cccc(C(=O)NNC(=O)c2ccccc2)c1 | inactive
O=C(NNc1c2ccccc2nc2ccccc12)C12CC3CC(CC(C3)C1)C2 | active: 13.1 µM
O=C1NC2(Nc3ccccc31)C(=O)Nc1ccc(Br)cc12 (configuration not stated) | inconclusive: 3.29 µM [inhibitor, full curve]
CN(C)c1cc[n+](CC(=O)Nc2ccc(Oc3ccccc3)cc2)cc1 | inconclusive: 7.38 µM [inhibitor, partial curve, poor fit]
O=S(=O)(c1ccc(NC(=S)Nc2ccc(OC(F)F)cc2)cc1)N1CCOCC1 | inactive
COc1ccc(C(=O)NNC(=O)CSc2nnc(C3CC3)n2C)cc1 | inactive
CC(=O)Nc1ccc(NC(=O)C2CC(=O)N(c3ccc(Cl)cc3)C2)cc1 (configuration not stated) | inconclusive: 14.7 µM [inhibitor, single point]
O=C(c1ccco1)N1CCN(c2nc3ccccc3c(=O)n2-c2ccccc2)CC1 | inconclusive: 2.62 µM [inhibitor, full curve, poor fit]
CC(Cn1cnc2ccccc21)C(=O)O (configuration not stated) | inactive
CCOc1ncccc1C(=O)OCc1csc(CC(=O)Nc2ccccc2C)n1 | inconclusive: 11.7 µM [inhibitor, single point]
COc1ccc(-c2ccc(C)cc2)cc1[C@H]1[C@H]2C=CC[C@@H](C)[C@@H]2C(=O)N1Cc1ccccc1 | inconclusive: 1.47 µM [inhibitor, partial curve, poor fit]
